Reference: PubChem BioAssay AID652058 (Broad Institute, 2013)
Among all 1,200 compounds or so, about 870 (72%) were called active. So high a share suggests a set chosen from earlier hits. The shares of active, inactive and inconclusive entries below differ from those in the screen.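 Rule for the calls: active = every test run fits a falling curve whose half-maximal concentration is at most twice the top valid dose; inconclusive = runs disagree, or flat 30 to 70% inhibition, or poor fit; inactive = every run inactive: flat, rising or weaker potency.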

Assay: blockers of HIV-1 ZM109 envelope-driven cell-cell fusion – HeLa effector, CEM target cells, luciferase, cherry-pick, dose response (AID 652058);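 note: 0% = neutral control wells and -100% = maraviroc 300 nM wells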
Conditions: HeLa Env/CEM cell fusion, 16-24 h; at 35 µM (top of the series) unless noted

Row | Compound | activity change, negative = inhibition
1 | C[C@@H]1CN([C@H](C)CO)C(=O)c2cccc(NS(=O)(=O)c3ccc(F)cc3)c2O[C@@H]1CN(C)Cc1ccc(C(F)(F)F)cc1 | inconclusive: -86.4%
2 | O=S(=O)(Nc1nc2ccccc2nc1Nc1cccc(S(=O)(=O)N2CCCCC2)c1)c1ccccc1 | inconclusive: -53.1%
3 | CC(=O)c1c(C)[nH]c(C(=O)OCC(=O)Nc2ccc(Cl)c(S(=O)(=O)N(C)C)c2)c1C | inconclusive: -23.1%
4 | Cc1[nH]nc2c1C1(C(=O)N(Cc3ccc(Cl)cc3)c3ccccc31)C(C#N)=C(N)O2 (configuration not stated) | inactive: -29.2%
5 | Cc1nc2ccc(NC(=O)c3cc(S(=O)(=O)N(C)c4ccccc4)ccc3Cl)cc2s1 | inconclusive: -34.3%
6 | Cc1ccc(NC(=O)c2ccc(OCC3CCCO3)cc2)cc1Cl (configuration not stated) | inactive: 225%
7 | CCCCCn1c(=O)[nH]c2cc(C(=O)N3CCN(Cc4ccc5c(c4)OCO5)CC3)ccc2c1=O | inconclusive: -49.3%
8 | Cn1c(=O)oc2cc(S(=O)(=O)NCc3ccncc3)ccc21 | inconclusive: -63.9%
9 | Clc1ccc(OCCN2CCN(c3ncnc4sccc34)CC2)cc1 | inconclusive: -28.1%
10 | COc1ccc2[nH]c(=O)c(CN(Cc3cccs3)S(=O)(=O)c3cccc4nsnc34)cc2c1 | inconclusive: -21.9%
11 | Cc1ccc(C2CC(=O)c3cnc(N4CCc5ccccc5C4)nc3C2)cc1 (configuration not stated) | inconclusive: -12.4%
12 | O=C1COc2ccc(-c3csc(=Nc4ccc(OC(F)F)cc4)n3CC3CCCO3)cc2N1 (configuration not stated) | inconclusive: -58.5%
13 | COc1ccccc1N/C(N)=N/c1nc(CSc2ccc(C)cc2)cc(=O)[nH]1 | inconclusive: -36.8%
14 | O=C(Nc1cccc(F)c1)c1cc(S(=O)(=O)N2CCC(C(=O)O)CC2)ccc1F | inconclusive: -34.9%
15 | C[C@H](CO)N1C[C@H](C)[C@H](CN(C)S(=O)(=O)c2ccc(F)cc2)Oc2ccc(NS(=O)(=O)c3ccccc3)cc2CC1=O | inactive: -27.6%
16 | Cc1ccc(C(O)(c2ccccc2)c2ccccc2C(C)N(C)C)c(C)c1 (configuration not stated) | inconclusive: -20.5%
17 | Cc1ccc(OCCN2CCN(c3ncnc4sc(C)c(C)c34)CC2)cc1 | inconclusive: -39%
18 | Cc1cccc(C)c1NC(=O)CCCSc1nnc(-c2ccc(Cl)cc2)n1-c1ccccc1 | inconclusive: -21.7%
19 | CC(NNC(=S)N1CCCCCC1)c1ccc2ccccc2n1 (configuration not stated) | inconclusive: -21.4%
20 | COc1ccc(S(=O)(=O)N2CCCCC2)cc1NC(=O)CN(Cc1ccco1)Cc1ccco1 | inactive: -3.11%
21 | O=C(Nc1nc2ccccc2[nH]1)c1ccccc1F | inactive: -7.03%
22 | Nc1cc2c(cc1Br)[nH]c(=O)c1ccccc12 | inactive: -25.2%
23 | O=c1[nH]c(=O)n([C@H]2C[C@H](O)[C@@H](CO)O2)cc1F | inconclusive: -39.5%
24 | Cc1nc2ccccc2n1CC(=O)NCc1ccccc1 | inconclusive: -13.5%

Row | Compound | activity change, negative = inhibition
25 | COc1ccc(CCNC(=O)C2CCCN(Cc3nc(-c4cccc(Cl)c4)oc3C)C2)cc1OC (configuration not stated) | inactive: -35.4%
26 | Cc1ccc(C2Oc3ccccc3C3=C2C(c2cccs2)n2ncnc2N3)cc1 (configuration not stated) | inactive: 30.7%
27 | Nc1cc(-c2ccccc2)nn1S(=O)(=O)c1ccc(F)cc1 | inconclusive: -43.5%
28 | Cc1ccc(S(=O)(=O)NCC(=O)OCC(=O)NCc2ccc3c(c2)OCO3)cc1 | inconclusive: -22.9% [at 15 µM]
29 | Cn1c(-c2ccc(Cl)cc2)ccc(C#N)c1=O | inactive: 154%
30 | CC(c1nc2ccccc2c(=O)[nH]1)N(C)CCOc1ccc(Cl)cc1 (configuration not stated) | inactive: -27%
31 | CC(C)N(Cc1nc(-c2ccccc2)no1)C(=O)CN(C)S(=O)(=O)c1ccc(Br)cc1 | inconclusive: -50.2%
32 | CC(C)OCCCNc1ncnc2c1[nH]c1ccccc12 | inconclusive: -46.7%
33 | COc1ccc2ncn(-c3ccccc3)c2c1 | inconclusive: -43.8%
34 | CSc1cccc(N2CC(C(=O)Nc3cccc(S(=O)(=O)N4CCCC4)c3)CC2=O)c1 (configuration not stated) | inconclusive: -90.8%
35 | CCCCCCCCCCOC(=O)Cn1c(COc2ccccc2OC)[n+](C)c2ccccc21 | inconclusive: -113%
36 | Cc1nc2ccccc2c2oc(C(=O)NCc3ccc4c(c3)OCO4)cc12 | inactive: 115%
37 | Cc1nc2ccccc2c2c1CC(C(C)(Cl)Br)O2 (configuration not stated) | inconclusive: -39.9%
38 | COc1ccccc1/C=C/C1(C(=O)NC2CCCC2)CC(=O)N1c1ccc(F)cc1 (configuration not stated) | inconclusive: -69.7%
39 | c1coc(CNc2c3c(nc4ccccc24)CCC3)c1 | inactive: -23.4%
40 | O=C(Nc1ccc(Cl)cn1)C1CCCN1S(=O)(=O)c1cccc2ccccc12 (configuration not stated) | inconclusive: -61.9%
41 | O=C(Nc1ccncc1)c1ccc(Cl)c(S(=O)(=O)N2CCc3ccccc32)c1 | inactive: 36.8% [at 16 µM]
42 | C[C@H]1CN([C@@H](C)CO)C(=O)Cc2cc(N(C)C)ccc2O[C@H]1CN(C)CC1CC1 | inactive: 35%
43 | C[C@@H]1CN([C@@H](C)CO)C(=O)c2cc(C3=CCCC3)cnc2O[C@@H]1CN(C)Cc1ccc(C(=O)O)cc1 | inconclusive: -72.6%
44 | O=C(Nc1cccc(C(F)(F)F)c1)c1ccc(Cn2cc(Br)cn2)o1 | inconclusive: -71.5%
45 | COc1ccccc1C#Cc1ccc2c(c1)O[C@H](CN(C)Cc1ccncc1)[C@@H](C)CN([C@@H](C)CO)S2(=O)=O | inconclusive: -39.7%
46 | COC(=O)[C@]12CCCCC=C1N(Cc1ccco1)C(=O)[C@H](CC(=O)NCCc1ccccc1OC)C2 | inconclusive: -18.1%
47 | COc1ccc(C(O)c2nc3ccccc3n2C)cc1OC (configuration not stated) | inactive: -23.7%

Looked up above.
c1coc(CNc2c3c(nc4ccccc24)CCC3)c1 – activity change, negative = inhibition: inactive: -23.4%
C[C@H]1CN([C@@H](C)CO)C(=O)Cc2cc(N(C)C)ccc2O[C@H]1CN(C)CC1CC1 – activity change, negative = inhibition: inactive: 35%
CC(C)OCCCNc1ncnc2c1[nH]c1ccccc12 – activity change, negative = inhibition: inconclusive: -46.7%
